Experimental data from PMC11861601.
No constants are given. Whether binding was seen depends on the method and setting. Some binding calls cover weakened binding; strength is not graded here.

By UniProt entry, the sequences of proteins in these tests, tags left out. Where a name states a change or a piece, a line headed by the entry shows the natural chain unless it says otherwise. Residues count along the entry.
UniProt P01106, residues 16-454: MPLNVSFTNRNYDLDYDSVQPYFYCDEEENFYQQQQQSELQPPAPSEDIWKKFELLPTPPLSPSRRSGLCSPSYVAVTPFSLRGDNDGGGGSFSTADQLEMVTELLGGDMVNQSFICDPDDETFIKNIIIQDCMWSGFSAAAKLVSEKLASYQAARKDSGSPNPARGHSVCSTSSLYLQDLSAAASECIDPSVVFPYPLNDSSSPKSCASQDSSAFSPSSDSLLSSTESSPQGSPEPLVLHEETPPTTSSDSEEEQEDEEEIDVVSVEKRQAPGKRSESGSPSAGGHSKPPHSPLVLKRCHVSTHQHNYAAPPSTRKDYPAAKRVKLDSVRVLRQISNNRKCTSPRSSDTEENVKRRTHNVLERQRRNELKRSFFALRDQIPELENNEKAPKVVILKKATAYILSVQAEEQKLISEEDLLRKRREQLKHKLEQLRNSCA
UniProt P61244: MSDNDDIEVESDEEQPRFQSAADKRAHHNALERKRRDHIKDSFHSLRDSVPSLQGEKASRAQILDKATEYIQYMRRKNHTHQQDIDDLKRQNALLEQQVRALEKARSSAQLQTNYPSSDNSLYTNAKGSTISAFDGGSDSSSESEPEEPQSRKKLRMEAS
UniProt P0A9M0: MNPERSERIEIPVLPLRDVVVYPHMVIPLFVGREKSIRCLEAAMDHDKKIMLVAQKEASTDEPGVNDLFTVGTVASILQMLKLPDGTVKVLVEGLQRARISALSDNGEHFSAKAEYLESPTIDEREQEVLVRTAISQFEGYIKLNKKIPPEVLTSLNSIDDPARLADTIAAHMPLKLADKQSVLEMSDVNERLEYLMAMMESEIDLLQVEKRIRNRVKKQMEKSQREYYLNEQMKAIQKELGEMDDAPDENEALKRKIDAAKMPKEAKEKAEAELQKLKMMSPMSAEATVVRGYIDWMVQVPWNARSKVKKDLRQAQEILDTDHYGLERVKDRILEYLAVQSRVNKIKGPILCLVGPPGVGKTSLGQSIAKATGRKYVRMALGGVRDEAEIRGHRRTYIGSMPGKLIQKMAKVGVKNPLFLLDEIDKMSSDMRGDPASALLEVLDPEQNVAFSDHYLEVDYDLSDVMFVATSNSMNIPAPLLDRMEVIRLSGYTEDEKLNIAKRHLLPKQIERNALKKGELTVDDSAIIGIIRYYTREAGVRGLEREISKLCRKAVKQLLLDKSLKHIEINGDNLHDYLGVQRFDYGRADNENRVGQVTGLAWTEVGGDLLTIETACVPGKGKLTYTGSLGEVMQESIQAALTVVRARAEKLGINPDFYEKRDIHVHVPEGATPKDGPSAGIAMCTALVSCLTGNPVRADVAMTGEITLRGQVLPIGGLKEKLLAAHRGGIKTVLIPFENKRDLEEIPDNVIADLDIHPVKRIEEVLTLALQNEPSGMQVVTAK

Assays:
[1] = molecular target: His-tagged full-length c-MYC (human) (UniProt P01106); assay: SPR; Biacore X100; His-tagged ligand (~0.2 µM) captured on Ni-charged Sensor Chip NTA; Lon protein or domain injected at five dilutions; 25 °C, 30 µL/min; running buffer as printed 0.1 M HEPES, 1.5 M NaCl, 0.03 M EDTA, 0.5% v/v Surfactant P20; reference cell without nickel; 1:1 Langmuir fit; both purified
His-tagged MAX (human) [2] = molecular target: His-tagged MAX (human) (UniProt P61244); assay: far-Western, overlay or dot blot; dot blots named only in the discussion; format not told; both purified
His-tagged MAX (human) [3] = molecular target: His-tagged MAX (human) (UniProt P61244); assay: SPR; Biacore X100; His-tagged ligand (~0.2 µM) captured on Ni-charged Sensor Chip NTA; Lon protein or domain injected at five dilutions; 25 °C, 30 µL/min; running buffer as printed 0.1 M HEPES, 1.5 M NaCl, 0.03 M EDTA, 0.5% v/v Surfactant P20; reference cell without nickel; 1:1 Langmuir fit; both purified

| binding [1] | binding (His-tagged MAX (human) [2]) | binding (His-tagged MAX (human) [3]) | Substance |
| --- | --- | --- | --- |
| binds |  |  | Lon AAA+ domain peptide (aa 241-584) (from UniProt P0A9M0 241-584) (domain or fragment) |
|  | binds |  | Lon N-terminal domain peptide (aa 1-245) (from UniProt P0A9M0 1-245) (domain or fragment) |
| binds |  |  | Lon peptidase domain peptide (aa 581-778) (from UniProt P0A9M0 581-778) (domain or fragment) |
| binds |  | binds | recombinant Escherichia coli Lon protease (aa 1-778) (from UniProt P0A9M0 1-778) (enzyme) |
